Data reported in publication PMC4298136.
These are yes or no findings as the source states them, for the method shown. Binding seen in cells or lysates may run through a third protein. Some results given as binding are weak or reduced against the parent protein; the word gives no strength.

Target: T1, Dvl-2 (mouse (endogenous in AKC14 and AKC17 cells)) (UniProt Q60838)
T1 sequence: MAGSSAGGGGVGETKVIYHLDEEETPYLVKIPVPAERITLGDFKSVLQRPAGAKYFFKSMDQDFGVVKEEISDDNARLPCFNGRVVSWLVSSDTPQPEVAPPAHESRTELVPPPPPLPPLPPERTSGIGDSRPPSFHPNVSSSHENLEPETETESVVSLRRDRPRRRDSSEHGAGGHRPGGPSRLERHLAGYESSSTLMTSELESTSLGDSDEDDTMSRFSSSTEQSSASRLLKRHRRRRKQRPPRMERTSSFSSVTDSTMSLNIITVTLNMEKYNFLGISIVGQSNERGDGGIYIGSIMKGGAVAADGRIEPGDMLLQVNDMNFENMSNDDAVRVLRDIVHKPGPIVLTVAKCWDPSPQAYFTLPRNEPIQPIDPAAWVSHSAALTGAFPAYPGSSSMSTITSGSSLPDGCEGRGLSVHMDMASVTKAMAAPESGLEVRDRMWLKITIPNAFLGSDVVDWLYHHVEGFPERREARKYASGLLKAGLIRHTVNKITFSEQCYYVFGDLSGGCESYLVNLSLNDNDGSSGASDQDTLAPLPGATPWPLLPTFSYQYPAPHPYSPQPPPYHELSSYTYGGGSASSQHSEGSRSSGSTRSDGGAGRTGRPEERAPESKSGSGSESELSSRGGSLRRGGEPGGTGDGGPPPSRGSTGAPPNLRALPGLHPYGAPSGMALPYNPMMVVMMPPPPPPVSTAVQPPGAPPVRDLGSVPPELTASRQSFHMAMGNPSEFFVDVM
Assay: co-IP; AKC14 and AKC17 cells expressing control or ATDC shRNA; which protein was precipitated is not told in the main text

binding: binds
B1: ataxia telangiectasia group D complementing gene (ATDC) (protein, UniProt Q14134 1-588)
chain: MEAADASRSNGSSPEARDARSPSGPSGSLENGTKADGKDAKTTNGHGGEAAEGKSLGSALKPGEGRSALFAGNEWRRPIIQFVESGDDKNSNYFSMDSMEGKRSPYAGLQLGAAKKPPVTFAEKGELRKSIFSESRKPTVSIMEPGETRRNSYPRADTGLFSRSKSGSEEVLCDSCIGNKQKAVKSCLVCQASFCELHLKPHLEGAAFRDHQLLEPIRDFEARKCPVHGKTMELFCQTDQTCICYLCMFQEHKNHSTVTVEEAKAEKETELSLQKEQLQLKIIEIEDEAEKWQKEKDRIKSFTTNEKAILEQNFRDLVRDLEKQKEEVRAALEQREQDAVDQVKVIMDALDERAKVLHEDKQTREQLHSISDSVLFLQEFGALMSNYSLPPPLPTYHVLLEGEGLGQSLGNFKDDLLNVCMRHVEKMCKADLSRNFIERNHMENGGDHRYVNNYTNSFGGEWSAPDTMKRYSMYLTPKGGVRTSYQPSSPGRFTKETTQKNFNNLYGTKGNYTSRVWEYSSSIQNSDNDLPVVQGSSSFSLKGYPSLMRSQSPKAQPQTWKSGKQTMLSHYRPFYVNKGNGIGSNEAP
